The data set deals with diet-induced obese mice. Put plainly: Diet-induced obese mice on high fat diet, daily oral gavage for 12 weeks. The following applies: Baseline (Day 1), HFD mice.

As for `CCCCCCCCCCCCCCC(=O)O` [C15:0, pentadecanoic acid], for the setting “5 mg/kg dose group”, the Cholesterol came to 153 ± 20 mg/dL; the “Glucose, 6 h fasted” value was 189 ± 46 mg/dL; the “Insulin, non-fasting” value amounted to 7.0 ± 4.1 ng/mL.
For the compound `CCCCCCCCCCCCCCCCC(=O)O` [C17:0, heptadecanoic acid], under “5 mg/kg dose group”, the Cholesterol was 152 ± 23 mg/dL; the “Glucose, 6 h fasted” value was 200 ± 23 mg/dL; the “Insulin, non-fasting” value came to 5.8 ± 3.1 ng/mL. Besides, under “50 mg/kg dose group”, the Cholesterol turned out to be 144 ± 20 mg/dL; the “Glucose, 6 h fasted” value was 196 ± 22 mg/dL; the “Insulin, non-fasting” value is 6.1 ± 2.2 ng/mL.

The values are drawn from US12440473B2 (priority 2019, dated 2025).
